# The list shows a part of the results. Further columns of the screen follow, without active or inactive calls. The list favours compounds with an active or inconclusive main result. Potencies come from curve fits of mixed quality, noted in brackets.
# Assay: qHTS Assay for Lipid Storage Modulators in Drosophila S3 Cells;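 for cell number change: cells counted by Cell Tracker Red CMTPX staining in the red channel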
# Settings: BODIPY lipid droplet fluorescence, 18-24 h; for cell number change: measured here: cell count max response, cells fed with added oleic acid
# How it was run: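 Drosophila S3 cells got compounds at several concentrations plus oleic acid (400 uM solution). Laser-scanning cytometry with 488 nm excitation read lipid droplets at 500-530 nm and cells at 575-640 nm. Percent activity was relative to 20 uM Triacsin C.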
# [1] = measured here: cell number channel AC50, cells fed with added oleic acid
# [2] = measured here: lipid fluorescence (Fed channel) AC50, cells fed with added oleic acid
SMILES,cell number change,AC50 [1],AC50 [2]
CCN(CCO)Cc1csc2ccc(Br)cc12,-22%,"1.03 µM [falling, full curve]","7.31 µM [falling, partial curve]"
NC(=O)c1nsc(C(=O)N(c2ccccc2)C(C(=O)NCC2CCCO2)c2ccc3ncccc3c2)c1N (configuration not stated),15.9%,,"6.51 µM [rising, single point]"
O=C(CSc1nc2c(sc3ccccc32)c(=O)n1CCCN1CCCC1)NCc1ccccc1,30.5%,"3.66 µM [rising, full curve, poor fit]",
CCOc1ccc(N2C(=O)CC(SCCN)C2=O)cc1 (configuration not stated),-44.7%,"23.1 µM [falling, single point]",
Cc1cc(C)c(S(=O)(=O)N2CCN(C(=O)CCOc3ccccc3C)CC2)c(C)c1,16.2%,,"0.0651 µM [rising, full curve, poor fit]"
O=C(CN1C(=O)C2CC=CCC2C1=O)Nc1nc(-c2ccc(F)cc2)cs1 (configuration not stated),19.4%,,"0.517 µM [rising, single point]"
CC(C)(C)c1ccccc1NC(=O)C1=COCCO1,-30.2%,"29.1 µM [falling, single point]","29.1 µM [falling, single point]"
O=C(Nc1nc(-c2ccncc2)cs1)C1c2ccccc2Oc2ccccc21,7.15%,"2.31 µM [rising, partial curve]","2.31 µM [rising, partial curve]"
CCC(=O)N1CCc2cc(S(=O)(=O)CCC(=O)N3CCN(c4ccc(Cl)cc4)CC3)ccc21,-58.2%,"20.6 µM [falling, single point]",
CC1CN(S(=O)(=O)c2ccc(C(=O)N3c4ccccc4CC3C)cc2)CC(C)O1 (configuration not stated),21.9%,,"29.1 µM [rising, single point]"
Cc1ccc(-c2noc(CCC(=O)N3CCCc4ccccc43)n2)cc1,,"2.31 µM [rising, partial curve]",
O=C(Nc1ccc(Nc2ccccc2)cc1)C1CC1,,,"0.82 µM [falling, full curve]"
CC(=O)C(Sc1nccc(-c2cccs2)n1)C(C)=O,-14.2%,,
Cc1oc(-c2ccc(Cl)cc2)nc1CN1CCC(C(=O)N2CCc3ccccc3C2)CC1,0.737%,,
Cc1ccc(NC(=O)COC(=O)C(NS(=O)(=O)c2ccc(Cl)cc2)C(C)O)cc1C (configuration not stated),4.31%,,"23.1 µM [rising, single point]"
CC(=O)Nc1ccc(NC(=O)c2ccc(-c3ccccc3Cl)o2)cc1,-51.9%,"25.9 µM [falling, single point]","4.11 µM [rising, partial curve]"
Cc1ccc(NC(=O)c2cccc(N3C(=O)C4C5C=CC(C5)C4C3=O)c2)cc1C (configuration not stated),-8.78%,,"6.51 µM [rising, single point]"
COc1ccc(-c2nc(C#N)c(N3CCN(C(=O)c4ccco4)CC3)o2)cc1OC,-14.2%,,"6.51 µM [falling, single point]"
Cc1cc(NCCN2CCOCC2)n2nc(C)c(-c3ccc(Cl)cc3)c2n1,-35.1%,"0.164 µM [falling, full curve, poor fit]","0.13 µM [rising, full curve, poor fit]"

SMILES,cell number change,AC50 [1],AC50 [2]
Brc1ccc(CNCC2CCCO2)cc1 (configuration not stated),-8.42%,,
CCN1CCN(Cc2ccc(NC(=O)c3cc(NC(=O)c4cc(-c5ccc(OC)cc5)n[nH]4)cc(OC)c3)cc2C(F)(F)F)CC1,-18.4%,,"29.1 µM [falling, single point]"
CC(C)(C)NC(=O)C(c1ccc(O)cc1)N(Cc1ccco1)C(=O)CCC(=O)Nc1ccccn1 (configuration not stated),14.7%,,
CCCn1c(C(C)Nc2nc(-c3cccc(Br)c3)cs2)nc2ccccc21 (configuration not stated),-7.78%,,
NC(=O)c1c(NC(=O)c2cccnc2)sc2c1CCCCC2,-4.69%,,"0.651 µM [rising, single point]"
CCSc1nc(NCCN(C)C)c2c3c(sc2n1)COC(C)(CC)C3 (configuration not stated),10.7%,,"0.00651 µM [rising, full curve, poor fit]"
C[C@]12C(=O)N(c3cccc(Cl)c3)C(=O)N1[C@H]1c3ccccc3OC[C@@H]1[C@H]2c1ccccc1,2.59%,,"6.51 µM [rising, partial curve, poor fit]"
O=C(Nc1ccc(N2C(=O)C3C4C=CC(C4)C3C2=O)cc1Cl)c1cccs1 (configuration not stated),,,"29.1 µM [falling, single point]"
O=C1CC(NNC(=O)c2ccccc2)C(=O)N1 (configuration not stated),46.4%,"29.1 µM [rising, single point]",
Cc1ccc2c(c1)NC(=O)C(CC(=O)NCc1ccc(F)cc1)O2 (configuration not stated),-7.59%,,"6.51 µM [rising, single point]"
CCC(C)NC(=O)N[C@@H](CCSC)C(=O)O (some centres not stated),2.18%,,"2.31 µM [falling, partial curve, poor fit]"
Cc1ccc(-c2nc(C#N)c(N3CCC(C)CC3)o2)cc1,64.9%,"25.9 µM [rising, partial curve, poor fit]","29.1 µM [rising, single point]"
COc1ccc(/C=C/C(=O)NNC(=O)c2cc(C)oc2C)cc1,34.7%,,
COc1ccc(-c2ccc3c(c2)S(=O)(=O)c2cccc(C(=O)NCCOc4ccccc4)c2C3=O)cc1OC,-39%,"4.11 µM [falling, single point]","4.11 µM [falling, single point]"
O=C(COC(=O)c1ccc2c(c1)OCO2)Nc1ccccc1,,,"0.231 µM [falling, full curve]"
O=C(Nc1nnc(C2CC2)s1)c1cccs1,18.8%,,"0.13 µM [falling, full curve, poor fit]"
CCCCN(C(=O)CN1C(=O)C2CCCCC2C1=O)c1c(N)n(CCCC)c(=O)[nH]c1=O (configuration not stated),-24.1%,"0.0366 µM [falling, full curve, poor fit]","0.0103 µM [falling, full curve, poor fit]"
CCN1CCN(CCNC(=O)c2ccc3c(c2)N(Cc2cccc(Cl)c2)C(=O)c2ccccc2S3=O)CC1 (configuration not stated),10.5%,,"5.8 µM [rising, single point]"

# Full records as entered above.
# `O=C1CC(NNC(=O)c2ccccc2)C(=O)N1` (configuration not stated) in the list: cell number change: 46.4%; AC50 [1]: 29.1 µM [rising, single point]
# `COc1ccc(/C=C/C(=O)NNC(=O)c2cc(C)oc2C)cc1` in the list: cell number change: 34.7%
# `CCN1CCN(Cc2ccc(NC(=O)c3cc(NC(=O)c4cc(-c5ccc(OC)cc5)n[nH]4)cc(OC)c3)cc2C(F)(F)F)CC1` in the list: cell number change: -18.4%; AC50 [2]: 29.1 µM [falling, single point]
